Measurements as given in patent publication US20150206621A1, “Electrical Insulator Comprising An Organofluorine Compound And Method For Producing It” (priority 2012, published 2015).
Some of these results come from one statement about several compounds together. For at least one compound, name, drawing or mass did not settle the structure.

Experiment: toxicity / lethal concentration LC50
Format: in vivo
Conditions: concluded from data available for commercial hydrofluoro ethers of higher molecular weight

FC(F)(F)COC(F)(F)F [2,2,2-trifluoroethyl-trifluoromethyl ether]
lethal concentration LC 50: higher than 10'000 ppm
